Test results as given in the supplement of paper PMC10849652.
This is one part of the list.

Chains of the proteins cited; added tags and fusions are not shown. Lines headed by an entry give the natural chain unless they say otherwise; changes in a name come on top.
UniProt Q96F46, whole entry, looked up: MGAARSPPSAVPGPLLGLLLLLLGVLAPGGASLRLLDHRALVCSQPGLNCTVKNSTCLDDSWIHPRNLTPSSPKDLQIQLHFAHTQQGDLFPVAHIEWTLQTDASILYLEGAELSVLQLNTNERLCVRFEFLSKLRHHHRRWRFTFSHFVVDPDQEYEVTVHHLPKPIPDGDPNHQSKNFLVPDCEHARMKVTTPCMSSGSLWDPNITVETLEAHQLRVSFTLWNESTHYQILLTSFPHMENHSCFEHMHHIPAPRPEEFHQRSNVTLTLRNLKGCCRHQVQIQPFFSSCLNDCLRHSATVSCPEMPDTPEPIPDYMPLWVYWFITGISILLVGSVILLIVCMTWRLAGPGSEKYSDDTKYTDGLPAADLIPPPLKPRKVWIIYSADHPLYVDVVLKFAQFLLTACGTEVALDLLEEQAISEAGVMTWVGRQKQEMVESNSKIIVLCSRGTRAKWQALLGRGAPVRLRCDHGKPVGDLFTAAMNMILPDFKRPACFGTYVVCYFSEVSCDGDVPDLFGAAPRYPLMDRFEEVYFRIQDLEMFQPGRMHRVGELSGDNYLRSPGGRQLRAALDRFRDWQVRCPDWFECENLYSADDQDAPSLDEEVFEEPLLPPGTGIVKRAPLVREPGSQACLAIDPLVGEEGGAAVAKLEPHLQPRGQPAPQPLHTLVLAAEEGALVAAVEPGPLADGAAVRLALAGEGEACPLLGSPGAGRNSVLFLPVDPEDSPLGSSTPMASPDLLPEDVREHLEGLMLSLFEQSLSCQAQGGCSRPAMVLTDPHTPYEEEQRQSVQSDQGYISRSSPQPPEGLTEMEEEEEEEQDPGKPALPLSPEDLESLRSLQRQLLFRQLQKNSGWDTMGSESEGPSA
UniProt Q96G21: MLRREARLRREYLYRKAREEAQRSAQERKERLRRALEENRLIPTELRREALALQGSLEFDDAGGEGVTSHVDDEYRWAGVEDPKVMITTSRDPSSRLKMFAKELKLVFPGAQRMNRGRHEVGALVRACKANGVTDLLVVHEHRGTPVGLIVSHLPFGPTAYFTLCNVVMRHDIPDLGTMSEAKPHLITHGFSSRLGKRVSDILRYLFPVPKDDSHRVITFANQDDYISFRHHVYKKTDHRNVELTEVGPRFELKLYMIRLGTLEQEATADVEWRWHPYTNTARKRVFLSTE
UniProt Q96EW2: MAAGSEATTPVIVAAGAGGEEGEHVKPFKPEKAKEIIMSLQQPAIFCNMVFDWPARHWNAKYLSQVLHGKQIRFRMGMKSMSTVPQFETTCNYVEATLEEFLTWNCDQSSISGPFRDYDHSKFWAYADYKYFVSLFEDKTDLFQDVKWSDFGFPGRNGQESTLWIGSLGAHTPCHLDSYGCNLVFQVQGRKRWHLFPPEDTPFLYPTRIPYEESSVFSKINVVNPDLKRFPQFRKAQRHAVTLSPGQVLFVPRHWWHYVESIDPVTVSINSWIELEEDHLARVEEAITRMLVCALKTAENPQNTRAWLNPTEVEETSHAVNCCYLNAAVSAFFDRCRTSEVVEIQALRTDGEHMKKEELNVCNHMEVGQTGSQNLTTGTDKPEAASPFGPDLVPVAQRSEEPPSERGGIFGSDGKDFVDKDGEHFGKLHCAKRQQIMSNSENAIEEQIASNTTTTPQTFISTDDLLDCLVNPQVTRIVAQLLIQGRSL
UniProt Q9H2S9: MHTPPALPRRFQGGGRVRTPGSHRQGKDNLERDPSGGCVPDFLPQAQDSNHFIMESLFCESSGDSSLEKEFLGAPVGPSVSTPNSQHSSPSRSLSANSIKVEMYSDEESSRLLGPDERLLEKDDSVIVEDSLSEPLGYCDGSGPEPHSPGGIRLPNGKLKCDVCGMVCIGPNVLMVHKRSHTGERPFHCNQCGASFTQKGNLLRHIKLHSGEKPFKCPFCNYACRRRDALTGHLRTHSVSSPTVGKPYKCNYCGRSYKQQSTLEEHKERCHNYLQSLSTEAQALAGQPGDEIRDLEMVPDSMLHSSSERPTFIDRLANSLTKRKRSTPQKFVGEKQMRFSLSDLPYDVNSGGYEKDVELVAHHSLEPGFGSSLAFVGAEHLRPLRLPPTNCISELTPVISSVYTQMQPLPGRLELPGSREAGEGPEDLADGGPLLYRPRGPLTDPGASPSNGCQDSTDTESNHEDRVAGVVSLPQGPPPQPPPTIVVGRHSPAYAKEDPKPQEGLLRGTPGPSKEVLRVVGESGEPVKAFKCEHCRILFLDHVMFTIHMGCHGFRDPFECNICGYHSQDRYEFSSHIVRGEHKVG
UniProt P0DMQ5: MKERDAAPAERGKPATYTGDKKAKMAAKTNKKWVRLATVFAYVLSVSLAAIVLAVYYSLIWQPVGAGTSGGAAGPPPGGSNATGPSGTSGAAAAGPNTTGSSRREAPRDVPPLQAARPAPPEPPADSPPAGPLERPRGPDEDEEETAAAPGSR
UniProt Q9NRY2: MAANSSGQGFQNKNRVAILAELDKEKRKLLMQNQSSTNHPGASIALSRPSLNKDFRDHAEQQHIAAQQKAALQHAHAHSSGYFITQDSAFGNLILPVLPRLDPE
UniProt Q9H7X7: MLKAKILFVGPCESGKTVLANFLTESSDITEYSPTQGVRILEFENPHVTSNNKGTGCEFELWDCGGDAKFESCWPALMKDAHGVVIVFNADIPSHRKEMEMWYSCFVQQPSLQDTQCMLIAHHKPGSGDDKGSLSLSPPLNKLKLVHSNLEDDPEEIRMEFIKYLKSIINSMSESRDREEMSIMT
UniProt A2RU49: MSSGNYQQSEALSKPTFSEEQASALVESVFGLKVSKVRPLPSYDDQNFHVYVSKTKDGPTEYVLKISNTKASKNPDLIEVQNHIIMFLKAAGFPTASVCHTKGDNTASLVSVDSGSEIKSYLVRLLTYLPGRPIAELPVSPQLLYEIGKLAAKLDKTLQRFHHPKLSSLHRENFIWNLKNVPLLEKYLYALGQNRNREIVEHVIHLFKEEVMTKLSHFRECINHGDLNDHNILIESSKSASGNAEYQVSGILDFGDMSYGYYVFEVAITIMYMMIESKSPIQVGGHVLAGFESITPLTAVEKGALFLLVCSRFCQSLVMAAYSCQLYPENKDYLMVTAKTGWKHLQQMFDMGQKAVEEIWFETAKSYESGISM
UniProt Q9H160: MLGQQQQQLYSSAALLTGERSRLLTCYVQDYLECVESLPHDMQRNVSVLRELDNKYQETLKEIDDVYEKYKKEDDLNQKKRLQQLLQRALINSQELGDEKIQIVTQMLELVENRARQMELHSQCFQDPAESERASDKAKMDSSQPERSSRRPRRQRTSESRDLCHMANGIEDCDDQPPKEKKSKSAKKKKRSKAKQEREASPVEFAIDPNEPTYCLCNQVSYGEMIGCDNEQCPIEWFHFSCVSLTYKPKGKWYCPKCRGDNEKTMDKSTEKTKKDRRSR
UniProt Q9UG01, whole entry, looked up: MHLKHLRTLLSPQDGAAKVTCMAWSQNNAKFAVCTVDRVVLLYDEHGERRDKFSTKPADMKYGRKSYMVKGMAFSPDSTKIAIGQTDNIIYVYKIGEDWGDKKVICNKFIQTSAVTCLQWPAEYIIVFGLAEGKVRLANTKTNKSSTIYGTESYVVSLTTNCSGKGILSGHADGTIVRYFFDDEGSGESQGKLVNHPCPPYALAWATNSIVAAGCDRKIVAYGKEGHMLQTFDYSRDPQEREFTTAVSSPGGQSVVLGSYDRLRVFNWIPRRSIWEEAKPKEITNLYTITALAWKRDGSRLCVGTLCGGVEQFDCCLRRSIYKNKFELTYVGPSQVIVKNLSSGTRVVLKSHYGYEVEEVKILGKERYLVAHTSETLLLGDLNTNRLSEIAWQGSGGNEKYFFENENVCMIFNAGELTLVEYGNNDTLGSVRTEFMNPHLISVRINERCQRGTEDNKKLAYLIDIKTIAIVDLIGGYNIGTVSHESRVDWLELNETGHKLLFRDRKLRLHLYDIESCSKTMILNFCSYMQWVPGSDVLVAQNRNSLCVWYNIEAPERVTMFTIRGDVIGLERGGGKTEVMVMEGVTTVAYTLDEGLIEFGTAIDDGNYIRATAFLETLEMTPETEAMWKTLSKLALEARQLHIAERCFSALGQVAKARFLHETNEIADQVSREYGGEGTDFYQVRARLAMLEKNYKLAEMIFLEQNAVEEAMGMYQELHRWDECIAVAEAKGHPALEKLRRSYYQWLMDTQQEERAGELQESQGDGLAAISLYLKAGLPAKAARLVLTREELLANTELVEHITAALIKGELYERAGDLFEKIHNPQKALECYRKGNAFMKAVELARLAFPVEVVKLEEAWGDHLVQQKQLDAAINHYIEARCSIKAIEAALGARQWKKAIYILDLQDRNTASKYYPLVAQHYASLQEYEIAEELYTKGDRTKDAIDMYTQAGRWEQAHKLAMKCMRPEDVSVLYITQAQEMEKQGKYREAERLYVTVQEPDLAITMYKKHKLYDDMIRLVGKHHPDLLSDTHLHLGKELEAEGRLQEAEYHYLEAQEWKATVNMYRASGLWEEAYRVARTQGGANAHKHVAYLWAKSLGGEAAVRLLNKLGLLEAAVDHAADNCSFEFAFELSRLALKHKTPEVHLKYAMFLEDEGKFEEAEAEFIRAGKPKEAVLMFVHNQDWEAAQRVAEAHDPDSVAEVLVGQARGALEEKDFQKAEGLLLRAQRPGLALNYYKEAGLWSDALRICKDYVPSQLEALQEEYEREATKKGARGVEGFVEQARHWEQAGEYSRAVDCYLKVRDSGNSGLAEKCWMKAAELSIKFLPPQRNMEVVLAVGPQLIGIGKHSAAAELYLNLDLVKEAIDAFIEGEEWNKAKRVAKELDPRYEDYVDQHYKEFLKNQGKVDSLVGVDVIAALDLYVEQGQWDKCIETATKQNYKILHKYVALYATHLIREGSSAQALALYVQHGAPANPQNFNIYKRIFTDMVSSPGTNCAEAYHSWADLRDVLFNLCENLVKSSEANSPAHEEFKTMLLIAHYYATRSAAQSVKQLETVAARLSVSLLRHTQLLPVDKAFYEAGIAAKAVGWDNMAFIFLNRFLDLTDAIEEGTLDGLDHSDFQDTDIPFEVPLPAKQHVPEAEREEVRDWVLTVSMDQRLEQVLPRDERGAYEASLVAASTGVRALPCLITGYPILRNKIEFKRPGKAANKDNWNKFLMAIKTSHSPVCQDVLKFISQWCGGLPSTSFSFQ
UniProt Q9C086, whole entry, looked up: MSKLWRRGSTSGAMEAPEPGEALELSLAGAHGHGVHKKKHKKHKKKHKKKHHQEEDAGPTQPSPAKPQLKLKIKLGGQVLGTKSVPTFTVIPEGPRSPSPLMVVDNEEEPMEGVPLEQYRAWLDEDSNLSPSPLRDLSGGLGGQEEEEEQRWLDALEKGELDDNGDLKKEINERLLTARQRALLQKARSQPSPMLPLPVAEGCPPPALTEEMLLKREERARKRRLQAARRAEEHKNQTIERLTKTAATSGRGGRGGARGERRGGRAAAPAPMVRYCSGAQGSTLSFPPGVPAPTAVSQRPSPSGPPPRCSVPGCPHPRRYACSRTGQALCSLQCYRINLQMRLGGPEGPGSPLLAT
UniProt Q6PI98, whole entry, looked up: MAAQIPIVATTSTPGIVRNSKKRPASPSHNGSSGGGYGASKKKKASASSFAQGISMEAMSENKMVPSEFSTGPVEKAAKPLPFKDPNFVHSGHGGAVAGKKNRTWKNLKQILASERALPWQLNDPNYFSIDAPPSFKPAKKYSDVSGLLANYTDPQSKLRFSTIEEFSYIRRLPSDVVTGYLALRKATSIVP
UniProt Q9NQS7, whole entry, looked up: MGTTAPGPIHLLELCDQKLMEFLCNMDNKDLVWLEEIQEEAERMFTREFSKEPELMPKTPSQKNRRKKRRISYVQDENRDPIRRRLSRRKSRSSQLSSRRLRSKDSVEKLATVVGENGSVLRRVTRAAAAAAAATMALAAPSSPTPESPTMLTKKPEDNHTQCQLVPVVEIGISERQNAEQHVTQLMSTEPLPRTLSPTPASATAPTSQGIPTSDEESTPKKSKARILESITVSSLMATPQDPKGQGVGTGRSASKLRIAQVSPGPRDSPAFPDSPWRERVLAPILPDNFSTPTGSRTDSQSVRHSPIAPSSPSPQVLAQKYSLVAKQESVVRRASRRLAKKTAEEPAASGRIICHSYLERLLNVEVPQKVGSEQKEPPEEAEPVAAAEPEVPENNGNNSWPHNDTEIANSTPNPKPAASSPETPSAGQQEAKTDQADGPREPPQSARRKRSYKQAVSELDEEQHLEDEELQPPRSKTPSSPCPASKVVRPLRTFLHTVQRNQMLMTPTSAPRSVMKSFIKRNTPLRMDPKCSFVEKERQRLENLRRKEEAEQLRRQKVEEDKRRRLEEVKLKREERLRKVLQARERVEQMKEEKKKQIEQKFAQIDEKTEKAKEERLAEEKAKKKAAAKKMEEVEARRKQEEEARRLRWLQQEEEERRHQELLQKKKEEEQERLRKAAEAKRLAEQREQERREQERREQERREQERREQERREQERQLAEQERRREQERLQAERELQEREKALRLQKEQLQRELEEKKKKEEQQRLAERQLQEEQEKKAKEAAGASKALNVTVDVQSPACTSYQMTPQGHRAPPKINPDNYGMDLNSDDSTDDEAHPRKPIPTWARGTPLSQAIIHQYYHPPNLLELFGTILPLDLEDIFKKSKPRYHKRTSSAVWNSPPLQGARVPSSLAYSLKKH

Legend:
Assay in all cases: log2 fold change, soluble protein after heating vs DMSO (PISA); higher = thermal stabilisation; K562 lysate, 10 uM; active = over 0.2 and 3.5 SD of the protein, either way, in both replicates (recomputed)
alvocidib = compound: CN1CC[C@H](c2c(O)cc(O)c3c(=O)cc(-c4ccccc4Cl)oc23)[C@H](O)C1 [alvocidib]
Method in brief: (§1)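 To prepare the extract, K562 pellets were dounce-homogenised in PBS pH 7.4 with 1 mM MgCl2, giving crude material at 1 mg/mL protein. This was treated with 10 μM compound for 30 min, then heated in aliquots for 3 min over 48°C-58°C before pooling and addition of NP-40 to 0.5% at 4°C. Centrifugation at 21,000xg for 90 min left soluble protein in the supernatant, which TMTpro 16plex LC-MS/MS quantified with equalised channel sums. Results are log-two fold changes in thermal stability compared with solvent controls, from duplicates.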

defactinib = compound: CNC(=O)c1ccc(Nc2ncc(C(F)(F)F)c(NCc3nccnc3N(C)S(C)(=O)=O)n2)cc1 [defactinib]
Method in brief: as §1

encorafenib = compound: COC(=O)N[C@@H](C)CNc1nccc(-c2cn(C(C)C)nc2-c2cc(Cl)cc(NS(C)(=O)=O)c2F)n1 [encorafenib]
Method in brief: as §1

[1] = compound: COC(=O)[C@H](CCSC)NC(=O)C1=C(C=C(C=C1)NC[C@H](CS)N)C2=CC=CC=C2
Method in brief: as §1

Tubastatin A = compound: CN1CCc2c(c3ccccc3n2Cc2ccc(C(=O)NO)cc2)C1 [Tubastatin A]
Method in brief: as §1

[2] = compound: CNC(=O)C1=CC=CC=C1NC2=NC(=NC=C2Cl)NC3=C(C=C(C=C3)N4CCOCC4)OC
Method in brief: as §1

[3] = compound: CNc1nc(-c2ccc3c(N)n[nH]c3c2)cc(N2C[C@@H](C(=O)NC3CCCCC3)CC[C@H]2C)n1
Method in brief: as §1

alisertib = compound: COc1cc(Nc2ncc3c(n2)-c2ccc(Cl)cc2C(c2c(F)cccc2OC)=NC3)ccc1C(=O)O [alisertib]
Method in brief: as §1

[4] = compound: COc1cc2nc(-c3cc(F)ccc3O)nc(N[C@@H]3CNC[C@H]3C(C)(C)O)c2cc1OC
Method in brief: as §1

gefitinib = compound: COc1cc2ncnc(Nc3ccc(F)c(Cl)c3)c2cc1OCCCN1CCOCC1 [gefitinib]
Method in brief: as §1

Measured: log2 fold change

IGSF1 isoform 4 (UniProt Q8N6C5)
inactive: alvocidib -0.019 | defactinib -0.155 | encorafenib -0.142 | [1] -0.1

HSPA8 (UniProt E9PN89)
inactive: alvocidib -0.248 | Tubastatin A 0.066 | [2] -0.074 | [3] -0.075 | encorafenib 0.088 | [1] 0.035 | alisertib 0.11 | [4] 0.013 | gefitinib 0.076

HYOU1, A0A494C039
inactive: alvocidib 0.024 | [2] -0.094 | [3] 0.065 | encorafenib -0.05 | [1] 0.007 | [4] -0.004

INO80 (UniProt Q9ULG1)
inactive: alvocidib 0.024 | [4] -0.024

INHBE (UniProt P58166)
inactive: alvocidib -0.041 | [2] 0.295 | alisertib -0.019 | gefitinib -0.076

IGHM isoform 2 (UniProt P01871)
inactive: alvocidib -0.125 | [3] 0.333 | alisertib -0.073 | gefitinib -0.256

ING1 (UniProt Q9UK53)
inactive: alvocidib 0.019 | Tubastatin A 0.025 | [2] 0.04 | [3] -0.025

ICAM4 (UniProt Q14773)
inactive: alvocidib 0 | Tubastatin A 0.112 | [3] -0.11 | encorafenib -0.005 | [1] -0.095

IL17RA (UniProt Q96F46)
inactive: alvocidib -0.135 | [3] -0.041 | encorafenib -0.1 | [1] -0.038 | [4] -0.026

IMP4 (UniProt Q96G21)
inactive: alvocidib 0.114 | [4] -0.011

IGKC (UniProt P01834)
inactive: alvocidib -0.079 | Tubastatin A 1.21 | [2] 0.209 | [3] -0.14 | encorafenib -0.11 | [1] -0.277 | alisertib -0.051 | [4] 0.412 | gefitinib 0.04

ICOSLG isoform 2 (UniProt O75144)
inactive: Tubastatin A -0.184

ICE1 (UniProt Q9Y2F5)
inactive: alvocidib -0.029 | Tubastatin A 0.121 | [3] -0.009 | encorafenib 0.114 | [1] 0.011 | alisertib 0.136 | gefitinib -0.009

IGKV3D-7, A0A0C4DH55
inactive: alvocidib 0.032 | Tubastatin A 0.864 | [2] -0.086 | alisertib -0.161 | gefitinib 0.194

HSPBAP1 (UniProt Q96EW2)
active: [3] -0.547
inactive: alvocidib -0.094 | Tubastatin A -0.139 | [2] 0.02 | encorafenib 0.097 | [1] -0.154 | alisertib -0.113 | [4] -0.104 | gefitinib -0.005

IMMP1L (UniProt Q96LU5)
inactive: alvocidib 0.014 | Tubastatin A 0.024 | [2] 0.03 | [3] 0.138 | encorafenib -0.017 | [1] -0.152 | alisertib -0.029 | [4] -0.02 | gefitinib -0.027

IKZF4 (UniProt Q9H2S9)
inactive: Tubastatin A -0.137 | encorafenib 0.131 | [1] 0.089 | alisertib 0.117 | [4] -0.038 | gefitinib -0.069

INAFM2 (UniProt P0DMQ5)
inactive: [3] 0.017

HUWE1 (UniProt H0Y659)
inactive: Tubastatin A 0.167 | [3] -0.057

INIP (UniProt Q9NRY2)
inactive: Tubastatin A 0.137 | [2] -0.119 | defactinib 0.208 | [3] 0.095 | [4] 0.13

IGFN1 isoform 5 (UniProt Q86VF2)
inactive: [4] 0.132

INPP5D (UniProt Q92835)
inactive: [2] 0.139

IFT22 (UniProt Q9H7X7)
inactive: Tubastatin A -0.163 | [2] -0.031 | [3] 0.088 | encorafenib -0.15 | [1] 0.214

Quoted at random: 2 records from the list, in no set order.
ICE1 (UniProt Q9Y2F5)
inactive: alvocidib -0.029 | Tubastatin A 0.121 | [3] -0.009 | encorafenib 0.114 | [1] 0.011 | alisertib 0.136 | gefitinib -0.009

INHBE (UniProt P58166)
inactive: alvocidib -0.041 | [2] 0.295 | alisertib -0.019 | gefitinib -0.076

Following part

IFIT3 (UniProt O14879)
inactive: Tubastatin A -0.023 | [2] 0.107 | [3] 0.262 | encorafenib 0.118 | [1] -0.316

IFT43 (UniProt Q96FT9)
inactive: Tubastatin A 0.015 | [2] 0.081 | defactinib 0.09 | [3] -0.468

IGF2BP2 isoform 6 (UniProt Q9Y6M1)
inactive: [4] 0.289

HSPBP1 (UniProt K7EMM7)
inactive: [3] -0.015

ICMT (UniProt O60725)
inactive: Tubastatin A -0.037 | defactinib -0.232 | [3] 0.128 | encorafenib 0.031 | [1] 0.029 | alisertib -0.05 | gefitinib -0.15

HYKK (UniProt A2RU49)
inactive: Tubastatin A 0.089 | [2] 0.131 | encorafenib 0.047 | [1] 0.014 | alisertib -0.079 | [4] 0.022 | gefitinib -0.107

Quoted from the entries so far (two entries):
HYOU1, A0A494C039
inactive: alvocidib 0.024 | [2] -0.094 | [3] 0.065 | encorafenib -0.05 | [1] 0.007 | [4] -0.004

INO80 (UniProt Q9ULG1)
inactive: alvocidib 0.024 | [4] -0.024

(cont.)

ING2 (UniProt Q9H160)
inactive: encorafenib 0.004 | [1] -0.128

IGHMBP2 (UniProt P38935)
inactive: [2] -0.008 | [3] 0.046 | encorafenib -0.029 | [1] 0.119 | alisertib 0.028 | [4] -0.035 | gefitinib -0.017

HYDIN (UniProt Q4G0P3)
inactive: Tubastatin A -0.041 | defactinib 0.045 | [3] 0.414 | encorafenib 0.172 | [1] -0.02 | [4] -0.154

IFT172 (UniProt Q9UG01)
inactive: Tubastatin A -0.244 | [2] 0.243 | defactinib 0.05 | [3] -0.037 | alisertib 0.034 | gefitinib 0.132

IDS (UniProt P22304)
inactive: [2] -0.019 | encorafenib 0.218 | [1] 0.205 | [4] -0.027

HTR1F (UniProt P30939)
inactive: defactinib -0.012

HSPH1 isoform 2 (UniProt Q92598)
inactive: Tubastatin A 0.042 | [3] -0.049 | encorafenib 0.131 | [1] 0.127 | [4] -0.097

ING4 (UniProt Q9UNL4)
inactive: [4] 0.143

INO80B (UniProt Q9C086)
inactive: [2] 0.033 | [3] -0.113

ING5 (UniProt Q8WYH8)
inactive: Tubastatin A 0.113 | [2] -0.129 | [3] 0.34 | encorafenib 0.183 | [1] 0.123 | alisertib 0.05 | [4] 0.163 | gefitinib -0.1

IL10RB (UniProt Q08334)
inactive: Tubastatin A 0.027 | [2] 0.002 | defactinib 0.03 | [3] 0.029 | encorafenib -0.026 | [1] -0.008 | alisertib 0.032 | [4] -0.014 | gefitinib -0.044

INO80C isoform 4 (UniProt Q6PI98)
inactive: Tubastatin A 0.169 | [3] -0.059 | alisertib 0.055 | [4] 0.126 | gefitinib 0.019

HUWE1 isoform 2 (UniProt Q7Z6Z7)
inactive: encorafenib -0.031 | [1] 0.097 | [4] 0.041

IFT88 (UniProt Q13099)
inactive: Tubastatin A -0.372 | alisertib 0.039 | gefitinib -0.07

INCENP (UniProt Q9NQS7)
inactive: [3] -0.12

IFT52 (UniProt Q9Y366)
inactive: [2] 0.253 | alisertib -0.017 | gefitinib 0.138

IFT122 isoform 5 (UniProt Q9HBG6)
inactive: Tubastatin A -0.008 | defactinib -0.022 | [3] -0.314 | alisertib -0.065 | gefitinib 0.25

HYOU1 (UniProt J3QL06)
inactive: Tubastatin A 0.03 | [2] 0.013 | defactinib 0.038 | [3] -0.033 | encorafenib -0.002 | [1] 0.212 | alisertib 0.071 | [4] 0.034 | gefitinib -0.175

ILF3 (UniProt K7EKJ9)
inactive: [4] 0.041

IFI16 (UniProt Q16666)
inactive: [2] -0.01

IFT57 (UniProt Q9NWB7)
inactive: Tubastatin A -0.079 | [2] 0.02 | [3] 0.006 | encorafenib -0.145 | [1] -0.351 | alisertib 0.096 | [4] -0.335 | gefitinib -0.225
